From PubChem BioAssay AID977622 (Broad Institute, 2014) come the findings set out here.

A short description of experiment [1]: wild-type E. coli growth inhibition versus h38 humanized strain – h38 mutant RFP, wild-type GFP, cherry-pick, dose response (AID 977622). The following applies: E. coli mixed culture, 24 h, total growth OD600 at 50 uM.
Experiment [2] relates to E. coli h38 humanized mutant ribosome RFP fluorescence, mixed culture, 24 h. The description is as above. The following applies: h38 mutant RFP at 50 uM.

Some of the results follow. These are further read-outs of the screen, such as a control signal, another cell line or another target. No call is given for them.

Take `CCCN(CC1CC1)C(=O)CSc1ncnc2sccc12`: the activity change is -30.9% in experiment [1] and 28.3% in experiment [2].

Turning to `COc1ccc(-c2cc(C(=O)NCc3ccc(C(F)(F)F)cc3)[nH]n2)c(C)c1`, the activity change in experiment [1] was -70.6%; in experiment [2], 12.3%.

Take `COC(=O)CC1COc2ccccc2N1C(=O)c1ccc(Br)cc1` (stereo not given): the activity change was -1.78% in experiment [1] and 0.375% in experiment [2].

As for `C=CCN(c1ccccc1)S(=O)(=O)c1ccc(Cl)c(C(=O)OCC(=O)NCCCN2CCCC2=O)c1`, in experiment [2], the activity change is -23%.

Consider `CCOC(=O)CN1C(=O)C(CC)Oc2ccc(Cl)cc21` (stereo not given), for which, in experiment [1], the activity change was -10.8%.

For `NC(=O)c1cccnc1Oc1ccc(Cl)cc1Cl`, the activity change in experiment [2] is -21.1%.

Turning to `CCN(CC)CCN(C(=O)c1ccc2c(c1)CCCC2)c1nc2ccc(F)cc2s1`, the activity change in experiment [1] was -51.1%; in experiment [2] it was -5.41%.

With `CCOC(=O)C1CCCN(C(=O)c2csc(-c3ccc4c(c3)CCO4)n2)C1` (stereo not given), the activity change in experiment [1] is -30.4%.

Take `COc1ccc(C)cc1-n1c(=O)c2ccccc2c2ccccc2c1=O`: the activity change in experiment [1] was -44.6%; in experiment [2] it was -5.29%.

Consider `Cn1cc(CN2CCCC(C(=O)c3cccs3)C2)c(-c2cccc(Cl)c2)n1` (stereo not given), for which the activity change in experiment [1] was -6.54%; in experiment [2], -2.24%.

In the case of `CCN(CC)S(=O)(=O)c1ccc(N2CCCC2)c(NC(=O)c2ccc([N+](=O)[O-])o2)c1`, the activity change in experiment [1] is -39.9%; in experiment [2], -29.7%.

As for `CCC1CCCCN1C(=O)CSc1nnc(-c2cccc(Cl)c2)o1` (stereo not given), the results for the activity change in experiment [1] and in experiment [2] were -13.3% and -9.72%, respectively.

In the case of `COc1ccc(OC2C(=O)N(Cc3ccc4c(c3)OCO4)C2c2sccc2C)cc1` (stereo not given), the activity change in experiment [1] is -41.4%; in experiment [2] it was -6.23%.

Take `COc1ccc(-c2ccc3ccccc3n2)cc1OC`: the activity change was -42% in experiment [1] and -10.2% in experiment [2].

Consider `O=C(NCCc1ccccc1)c1cccc(NC(=O)c2ccccc2)c1`, for which the activity change is -32.1% in experiment [1] and -22.4% in experiment [2].

In the case of `CCN(CC(=O)Nc1cccc(S(=O)(=O)N2CCCC2)c1)CC(=O)Nc1ccccc1OC`, the activity change in experiment [1] was -10.9%.

Regarding `COCc1c(C#N)c(NCCc2ccc(F)cc2)nc(C)c1[N+](=O)[O-]`, the activity change was -4.25% in experiment [1] and -0.972% in experiment [2].

On to `Cc1ccc2sc(N(CCCN(C)C)C(=O)c3ccc(S(=O)(=O)N4CCc5ccccc5C4)cc3)nc2c1C`, for which the activity change in experiment [1] is -46.1%; in experiment [2], -3.86%.

Consider `Nc1ccccc1Sc1c[nH]c2ccccc12`, for which the activity change in experiment [1] is -14.6%; in experiment [2], 11.3%.

With `Cc1ccc(C2NC(c3ccc(C)cc3)C(C)C(=O)C2C)cc1` (stereo not given), the activity change in experiment [1] is -14.8%; in experiment [2], -5.65%.

In the case of `CCCCCCC(=O)N1CCCC(c2nc(-c3cccc(OC)c3)no2)C1` (stereo not given), the figures for the activity change in experiment [1] and in experiment [2] were -30% and 31.5%, respectively.

As to `CCCN1C(=O)C(O)(c2c(C)[nH]c3ccccc23)c2ccccc21` (stereo not given), the activity change in experiment [1] was -14.9%; in experiment [2], -14.2%.

Turning to `O=S(=O)(NC1CC1)c1ccc(S(=O)(=O)N2CCc3ccccc32)cc1`, the activity change in experiment [1] was -30.1%; in experiment [2], -12.3%.

In the case of `O=C(COC(=O)CCC(=O)c1ccc(F)cc1)NCCc1ccccc1`, in experiment [1], the activity change was -20.8%.

Regarding `Cc1cc(C(=O)NCCC2=CCCCC2)ccc1[N+](=O)[O-]`, the figures for the activity change in experiment [1] and in experiment [2] were -24.9% and 14.4%, respectively.

`CCOc1ccc(OCC)c(NC(=O)CSc2nc3cccnc3n2C)c1`: the values for the activity change in experiment [1] and in experiment [2] were -59.3% and -18.3%, respectively.

For `CN(c1cccc(NC(=O)c2ccc(CN3CCc4ccccc4C3)cc2)c1)S(C)(=O)=O`, the activity change was -38.1% in experiment [1] and 14.3% in experiment [2].

On to `Cc1cc(-c2ccc(C)c(S(=O)(=O)NC(C)Cc3ccco3)c2)on1` (stereo not given), for which the figures for the activity change in experiment [1] and in experiment [2] were -63.9% and -15%, respectively.

As to `Cc1ccc(NC(=O)C[n+]2cc(-c3ccccc3)n3c2CCC3)cc1`, the activity change in experiment [1] is -20.4%; in experiment [2] it was 20.6%.

With `Cc1cccc(-c2ccc([C@@H]3[C@H](CO)N4CCCCN(S(=O)(=O)c5ccccc5C)C[C@@H]34)cc2)c1`, the activity change was -47.5% in experiment [1] and 242% in experiment [2].

As to `Cc1cccc(OCCNc2ncccc2[N+](=O)[O-])c1`, in experiment [1], the activity change was -24.7%.

Consider `CN1CCN(C(=O)C[C@H]2CC[C@H]3[C@@H](COC[C@@H](O)CN3C(=O)Nc3ccc(Cl)cc3)O2)CC1`, for which the activity change in experiment [1] was -51.3%; in experiment [2] it was 52.5%.

For `O=C(Nc1ccccc1F)N1C[C@@H]2[C@H](c3ccccc31)[C@@H](CO)N2C(=O)Cc1ccccc1`, the activity change in experiment [1] was -94.9%; in experiment [2], 9.31%.

Take `CNC(=O)C[C@H]1CC[C@@H]2[C@@H](COc3ccc(NC(=O)Nc4ccc(F)c(F)c4)cc3C(=O)N2C)O1`: the activity change in experiment [1] is -17%; in experiment [2], 0.849%.

With `COC(=O)[C@]1(Sc2ccc(C)cc2)CC(=O)N[C@@H]1c1ccccc1`, the activity change in experiment [1] was -25.6%; in experiment [2], -2.6%.

In the case of `Cc1ccc(S(=O)(=O)Nc2ccc3c(c2)C(=O)N([C@@H](C)CO)C[C@@H](C)[C@H](CN(C)C(=O)c2ccccc2)OCCCC[C@@H](C)O3)cc1`, the activity change in experiment [1] was -52.2%; in experiment [2], 67.4%.

In the case of `Cc1ccccc1-n1nnnc1SCCCC(=O)c1ccc(F)cc1`, the results for the activity change in experiment [1] and in experiment [2] were -51.3% and -19.8%, respectively.

For the molecule `O=C(Cc1ccc(Br)cc1)Nc1cccc(-c2cn3c(n2)SCC3)c1`, the activity change is -25.7% in experiment [1] and -11.9% in experiment [2].

For the molecule `CO[C@@H]1CN(C)C(=O)c2ccc(NC(=O)c3nc4ccccc4s3)cc2OC[C@@H](C)N(Cc2ccncc2)C[C@@H]1C`, the activity change in experiment [1] is -90%; in experiment [2] it was -21.2%.

`COc1cccc(SCC(=O)N2CCN(c3ccccc3)CC2)c1`: the activity change in experiment [1] is -15.7%.

As for `Cc1cc(C)nc(SCc2cn3c(C)cccc3n2)n1`, the activity change in experiment [1] was -46.2%; in experiment [2], 47.5%.

In the case of `c1ccc(Cc2nc3ccccc3s2)cc1`, the activity change is -13.6% in experiment [1] and 35.4% in experiment [2].

Take `COc1ccc(OCCC(=O)OCC(=O)NCCC2=CCCCC2)cc1`: the activity change in experiment [1] is -9.19%; in experiment [2] it was 21%.

Consider `CC(C)(C)c1ccc(C(CC(=O)O)NC(=O)Cc2ccc(Cl)cc2)cc1` (stereo not given), for which, in experiment [1], the activity change is -17%.

`CC(C)Oc1ccc(C(CC(=O)O)NC(=O)C(Sc2ccccc2)c2ccccc2)cc1` (stereo not given): in experiment [1], the activity change was -15.2%.

On to `Cn1c(-[n+]2c(-c3ccccc3)cc(-c3ccccc3)cc2-c2ccccc2)nc2c([N+](=O)[O-])cccc21`, for which the results for the activity change in experiment [1] and in experiment [2] were -53.3% and -3.4%, respectively.

On to `Nc1nc(Nc2ccccc2F)nc(NCc2ccco2)c1[N+](=O)[O-]`, for which, in experiment [1], the activity change was -81.4%.

In the case of `O=C(Nc1cc(F)ccc1F)N1CCCCN2[C@@H](CO)[C@H](c3ccc(-c4cccnc4)cc3)[C@@H]2C1`, the activity change is -11.1% in experiment [1] and 7.23% in experiment [2].

As for `CCCn1c(C(C)Nc2nc(-c3ccc(C)cc3)cs2)nc2ccccc21` (stereo not given), the results for the activity change in experiment [1] and in experiment [2] were -3.25% and 63%, respectively.

For `CC(=O)Nc1ccc(NS(=O)(=O)c2ccc(Cl)s2)cc1`, the activity change in experiment [1] was -24.6%; in experiment [2], -2.02%.

For the molecule `O=C(Nc1cc(Cl)ccc1-n1cncn1)c1ccc([N+](=O)[O-])o1`, the activity change in experiment [1] is -36.8%.

On to `O=C(Cc1cccc(NC(=O)C2CCCN(C(=O)CCc3ccccc3)C2)c1)Nc1cccc(C(=O)N2CCCC2)c1` (stereo not given), for which the activity change in experiment [1] is -26.3%; in experiment [2], 15.6%.

On to `O=C(CCC1CCCN(C(=O)c2ccsc2)C1)N1CCN(c2ccccn2)CC1` (stereo not given), for which the activity change in experiment [1] amounted to 3.17%.

As for `COC(=O)c1cc(C)sc1NC(=O)CC1Nc2ccccc2NC1=O` (stereo not given), the activity change is -0.704% in experiment [1] and 4.95% in experiment [2].

`S=c1nc(-c2cc(Cl)cc(Cl)c2)[nH][nH]1`: the activity change is -37.2% in experiment [1] and -15.3% in experiment [2].

On to `O=C1CN(S(=O)(=O)c2ccc(Cl)cc2)c2ccccc2N1`, for which the activity change in experiment [1] is -40.6%.

For `O=C(Nc1ccc(Cl)c(Cl)c1)N[C@@H]1CC[C@H](CCn2cc(C3CCCCC3)nn2)O[C@H]1CO`, the activity change in experiment [1] was -83.1%; in experiment [2], 9.58%.
